Experimental findings from PMC4222488, “Lipid droplet binding thalidomide analogs activate endoplasmic reticulum stress and suppress hepatocellular carcinoma in a chemically induced transgenic mouse model” (Lipids in Health and Disease, 2013) are described below.

In the data set the test system is HepG2. The data set can be described thus: Intracellular localization by fluorescent confocal microscopy with ER-Tracker Green. It counts as cell-based, human. Particulars: HepG2 live cells, inherent blue fluorescence.

Structures are written as SMILES.

As to `CC(C)c1cccc(C(C)C)c1N1C(=O)c2c(F)c(F)c(F)c(NC(=O)NC(=O)CCl)c2C1=O` [Ac-2010], the Subcellular localization result is on record as “ER-specific localization”.

For the compound `CC(C)c1cccc(C(C)C)c1N1C(=O)c2c(F)c(F)c(F)c(N[C@@H]3C=CS(=O)(=O)C3)c2C1=O` [Ac-915, 2-[2,6-bis(propane-2-yl)phenyl]-4-{[(3R)-1,1-dioxo-2,3-dihydro-thiophene-3-yl]amino}-5,6,7-trifluoro-2,3-dihydro-1H-isoindole-1,3-dione], the Subcellular localization entry is “ER-specific localization”.
